Some of the results follow.
What was measured:
Test in all cases: log2 fold change, soluble protein after heating vs DMSO (PISA); higher = thermal stabilisation; K562 lysate, 10 uM; active = over 0.2 and 3.5 SD of the protein, either way, in both replicates (recomputed)
crizotinib = compound: C[C@@H](Oc1cc(-c2cnn(C3CCNCC3)c2)cnc1N)c1c(Cl)ccc(F)c1Cl [crizotinib]
Summary of the method: (§1)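 K562 pellets were dounce-homogenised in PBS pH 7.4 with 1 mM MgCl2, and the crude extract at 1 mg/mL protein was treated with 10 μM compound for 30 min. Aliquots were heated for 3 min across 48°C-58°C, pooled, and brought to 0.5% NP-40 at 4°C; soluble protein was the supernatant after 21,000xg for 90 min. Soluble protein was quantified by TMTpro 16plex LC-MS/MS with channel sums equalised, and reported as log2 fold change in thermal stability against DMSO controls, with values from duplicates.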

By UniProt entry, the sequences of proteins in these tests, tags left out. Where a name states a change or a piece, a line headed by the entry shows the natural chain unless it says otherwise.
UniProt Q16527: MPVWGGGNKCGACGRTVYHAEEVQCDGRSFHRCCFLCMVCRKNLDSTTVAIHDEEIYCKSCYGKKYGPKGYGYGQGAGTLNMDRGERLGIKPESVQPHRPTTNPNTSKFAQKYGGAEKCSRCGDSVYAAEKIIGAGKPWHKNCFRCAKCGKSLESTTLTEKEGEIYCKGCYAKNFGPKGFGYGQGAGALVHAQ
UniProt Q6UUV7: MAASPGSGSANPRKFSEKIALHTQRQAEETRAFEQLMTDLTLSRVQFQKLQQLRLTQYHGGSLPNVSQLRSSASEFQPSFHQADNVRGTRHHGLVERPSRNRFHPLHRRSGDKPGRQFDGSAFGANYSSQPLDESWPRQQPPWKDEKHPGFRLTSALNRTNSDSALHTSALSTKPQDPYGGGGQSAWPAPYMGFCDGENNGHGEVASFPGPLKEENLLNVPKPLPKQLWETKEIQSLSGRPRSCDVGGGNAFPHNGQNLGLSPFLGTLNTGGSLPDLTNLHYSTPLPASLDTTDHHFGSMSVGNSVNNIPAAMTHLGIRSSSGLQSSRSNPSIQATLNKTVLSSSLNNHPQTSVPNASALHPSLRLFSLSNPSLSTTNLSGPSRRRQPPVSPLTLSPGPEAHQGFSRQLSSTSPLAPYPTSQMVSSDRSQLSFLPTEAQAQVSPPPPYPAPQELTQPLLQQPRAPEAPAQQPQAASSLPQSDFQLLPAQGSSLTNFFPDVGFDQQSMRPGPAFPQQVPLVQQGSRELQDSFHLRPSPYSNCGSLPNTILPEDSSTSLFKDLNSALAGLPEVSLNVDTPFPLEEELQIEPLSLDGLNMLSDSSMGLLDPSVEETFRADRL
UniProt O95196: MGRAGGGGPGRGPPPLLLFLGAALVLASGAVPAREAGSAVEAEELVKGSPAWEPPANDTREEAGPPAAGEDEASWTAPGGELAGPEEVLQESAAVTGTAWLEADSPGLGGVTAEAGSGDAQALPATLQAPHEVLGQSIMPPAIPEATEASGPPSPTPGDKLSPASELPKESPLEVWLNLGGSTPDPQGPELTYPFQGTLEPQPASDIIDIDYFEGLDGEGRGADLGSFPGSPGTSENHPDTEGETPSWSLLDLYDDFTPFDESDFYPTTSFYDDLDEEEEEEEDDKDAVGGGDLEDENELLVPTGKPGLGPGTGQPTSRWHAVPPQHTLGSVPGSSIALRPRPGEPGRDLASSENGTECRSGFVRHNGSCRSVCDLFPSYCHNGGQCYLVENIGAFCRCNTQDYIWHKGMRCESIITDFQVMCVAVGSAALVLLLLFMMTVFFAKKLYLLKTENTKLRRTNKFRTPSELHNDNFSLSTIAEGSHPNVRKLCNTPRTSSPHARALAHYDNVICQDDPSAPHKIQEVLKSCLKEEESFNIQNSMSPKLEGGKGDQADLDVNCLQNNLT
UniProt Q16526: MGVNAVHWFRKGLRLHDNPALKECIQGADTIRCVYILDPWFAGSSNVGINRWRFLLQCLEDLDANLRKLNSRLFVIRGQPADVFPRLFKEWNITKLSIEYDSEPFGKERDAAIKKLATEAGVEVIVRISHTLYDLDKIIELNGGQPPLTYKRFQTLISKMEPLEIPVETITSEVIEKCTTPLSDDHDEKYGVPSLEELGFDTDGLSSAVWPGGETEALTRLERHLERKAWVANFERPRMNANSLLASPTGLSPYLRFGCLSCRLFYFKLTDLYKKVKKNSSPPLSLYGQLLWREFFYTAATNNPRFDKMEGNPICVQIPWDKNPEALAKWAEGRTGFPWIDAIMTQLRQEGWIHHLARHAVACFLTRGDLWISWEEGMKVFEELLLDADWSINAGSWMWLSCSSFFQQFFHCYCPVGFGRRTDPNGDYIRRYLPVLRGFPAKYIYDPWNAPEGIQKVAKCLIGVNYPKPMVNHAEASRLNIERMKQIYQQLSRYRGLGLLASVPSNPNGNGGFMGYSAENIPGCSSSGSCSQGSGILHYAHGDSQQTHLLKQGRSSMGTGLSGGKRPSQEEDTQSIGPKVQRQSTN
UniProt Q9GZU7: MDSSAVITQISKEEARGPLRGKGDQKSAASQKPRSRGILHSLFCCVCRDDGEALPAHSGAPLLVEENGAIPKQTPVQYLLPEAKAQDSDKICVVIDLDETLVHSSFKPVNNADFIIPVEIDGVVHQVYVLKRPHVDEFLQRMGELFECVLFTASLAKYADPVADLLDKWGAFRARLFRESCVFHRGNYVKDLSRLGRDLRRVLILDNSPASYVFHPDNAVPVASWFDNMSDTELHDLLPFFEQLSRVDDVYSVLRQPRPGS
UniProt Q6GPI1, whole entry, looked up: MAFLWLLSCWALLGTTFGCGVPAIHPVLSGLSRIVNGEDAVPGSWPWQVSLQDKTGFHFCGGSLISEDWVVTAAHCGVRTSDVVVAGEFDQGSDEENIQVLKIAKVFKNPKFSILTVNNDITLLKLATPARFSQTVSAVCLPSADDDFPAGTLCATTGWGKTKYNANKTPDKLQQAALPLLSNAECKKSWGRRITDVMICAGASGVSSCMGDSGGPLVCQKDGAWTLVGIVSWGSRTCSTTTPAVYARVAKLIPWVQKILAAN
UniProt Q9UKG9: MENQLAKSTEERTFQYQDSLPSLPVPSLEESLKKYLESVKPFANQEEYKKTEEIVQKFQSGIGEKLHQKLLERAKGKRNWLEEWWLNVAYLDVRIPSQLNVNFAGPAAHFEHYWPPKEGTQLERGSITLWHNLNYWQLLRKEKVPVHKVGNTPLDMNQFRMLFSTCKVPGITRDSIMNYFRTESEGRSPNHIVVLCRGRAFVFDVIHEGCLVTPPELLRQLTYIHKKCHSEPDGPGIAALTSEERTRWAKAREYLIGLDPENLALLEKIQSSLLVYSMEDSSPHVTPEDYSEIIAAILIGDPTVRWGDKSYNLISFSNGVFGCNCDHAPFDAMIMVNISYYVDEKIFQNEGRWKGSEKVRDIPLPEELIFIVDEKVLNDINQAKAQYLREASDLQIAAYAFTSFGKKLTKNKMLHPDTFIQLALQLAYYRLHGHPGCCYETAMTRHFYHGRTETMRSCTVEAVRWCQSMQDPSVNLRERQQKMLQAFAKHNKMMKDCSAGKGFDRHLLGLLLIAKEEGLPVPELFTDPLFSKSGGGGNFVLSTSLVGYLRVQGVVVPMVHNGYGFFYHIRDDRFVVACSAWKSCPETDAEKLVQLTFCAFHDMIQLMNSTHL
UniProt P09603: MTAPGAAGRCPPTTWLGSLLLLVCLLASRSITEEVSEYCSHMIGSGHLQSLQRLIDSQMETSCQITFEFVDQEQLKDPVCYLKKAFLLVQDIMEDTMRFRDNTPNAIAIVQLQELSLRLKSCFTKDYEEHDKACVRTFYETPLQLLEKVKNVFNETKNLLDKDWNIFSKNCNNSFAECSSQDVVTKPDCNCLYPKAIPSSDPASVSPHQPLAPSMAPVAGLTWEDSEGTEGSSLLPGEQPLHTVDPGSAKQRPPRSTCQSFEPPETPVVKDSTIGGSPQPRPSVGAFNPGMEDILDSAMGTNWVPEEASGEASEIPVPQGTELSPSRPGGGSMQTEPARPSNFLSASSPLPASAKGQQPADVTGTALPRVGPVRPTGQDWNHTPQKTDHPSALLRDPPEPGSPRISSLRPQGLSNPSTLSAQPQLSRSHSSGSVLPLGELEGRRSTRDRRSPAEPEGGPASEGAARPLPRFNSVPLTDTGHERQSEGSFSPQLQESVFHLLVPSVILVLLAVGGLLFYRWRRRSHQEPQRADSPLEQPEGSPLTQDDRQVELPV
UniProt P48729: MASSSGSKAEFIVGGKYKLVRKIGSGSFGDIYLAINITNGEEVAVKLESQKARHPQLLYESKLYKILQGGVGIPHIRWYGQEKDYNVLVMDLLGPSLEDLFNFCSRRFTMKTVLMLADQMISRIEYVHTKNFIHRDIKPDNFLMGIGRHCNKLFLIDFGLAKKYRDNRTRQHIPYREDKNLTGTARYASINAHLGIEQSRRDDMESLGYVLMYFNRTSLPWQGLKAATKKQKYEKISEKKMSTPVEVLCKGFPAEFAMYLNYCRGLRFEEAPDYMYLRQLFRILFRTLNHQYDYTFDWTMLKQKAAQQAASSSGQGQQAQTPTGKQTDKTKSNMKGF
UniProt Q9Y6M4: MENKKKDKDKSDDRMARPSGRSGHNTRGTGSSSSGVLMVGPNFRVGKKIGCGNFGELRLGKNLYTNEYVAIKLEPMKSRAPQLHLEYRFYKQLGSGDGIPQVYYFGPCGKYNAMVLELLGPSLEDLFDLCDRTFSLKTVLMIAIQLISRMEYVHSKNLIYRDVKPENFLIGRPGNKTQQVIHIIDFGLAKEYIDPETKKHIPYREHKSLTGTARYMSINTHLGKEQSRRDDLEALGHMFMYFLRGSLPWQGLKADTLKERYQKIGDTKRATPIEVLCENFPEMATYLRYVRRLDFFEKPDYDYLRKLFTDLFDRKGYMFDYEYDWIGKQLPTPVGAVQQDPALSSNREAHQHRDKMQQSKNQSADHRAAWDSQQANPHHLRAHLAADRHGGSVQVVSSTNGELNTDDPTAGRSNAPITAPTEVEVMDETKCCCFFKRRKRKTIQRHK
UniProt Q7LFL8: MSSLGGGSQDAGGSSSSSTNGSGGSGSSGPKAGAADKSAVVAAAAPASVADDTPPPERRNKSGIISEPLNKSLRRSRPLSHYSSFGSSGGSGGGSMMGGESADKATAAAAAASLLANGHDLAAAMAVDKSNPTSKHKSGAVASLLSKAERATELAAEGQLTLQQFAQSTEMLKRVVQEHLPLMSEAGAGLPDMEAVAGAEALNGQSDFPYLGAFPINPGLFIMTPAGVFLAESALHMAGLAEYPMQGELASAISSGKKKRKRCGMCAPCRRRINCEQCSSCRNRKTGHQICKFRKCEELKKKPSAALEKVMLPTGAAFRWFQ
UniProt Q9H175: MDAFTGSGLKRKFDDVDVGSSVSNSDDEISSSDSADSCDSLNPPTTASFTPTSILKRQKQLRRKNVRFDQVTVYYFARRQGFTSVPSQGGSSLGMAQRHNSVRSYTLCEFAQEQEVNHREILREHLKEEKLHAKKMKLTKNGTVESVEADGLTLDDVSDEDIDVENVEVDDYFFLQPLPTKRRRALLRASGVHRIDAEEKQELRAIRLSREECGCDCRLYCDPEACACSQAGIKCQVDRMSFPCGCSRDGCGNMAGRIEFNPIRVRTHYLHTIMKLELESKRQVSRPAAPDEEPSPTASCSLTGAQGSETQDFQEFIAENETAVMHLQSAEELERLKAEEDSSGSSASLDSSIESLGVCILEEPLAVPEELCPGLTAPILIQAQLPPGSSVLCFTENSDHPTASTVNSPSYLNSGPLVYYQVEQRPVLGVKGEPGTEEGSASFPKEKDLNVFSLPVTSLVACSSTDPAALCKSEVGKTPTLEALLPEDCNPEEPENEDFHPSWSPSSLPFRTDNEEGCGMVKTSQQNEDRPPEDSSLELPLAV
UniProt Q2NKJ3: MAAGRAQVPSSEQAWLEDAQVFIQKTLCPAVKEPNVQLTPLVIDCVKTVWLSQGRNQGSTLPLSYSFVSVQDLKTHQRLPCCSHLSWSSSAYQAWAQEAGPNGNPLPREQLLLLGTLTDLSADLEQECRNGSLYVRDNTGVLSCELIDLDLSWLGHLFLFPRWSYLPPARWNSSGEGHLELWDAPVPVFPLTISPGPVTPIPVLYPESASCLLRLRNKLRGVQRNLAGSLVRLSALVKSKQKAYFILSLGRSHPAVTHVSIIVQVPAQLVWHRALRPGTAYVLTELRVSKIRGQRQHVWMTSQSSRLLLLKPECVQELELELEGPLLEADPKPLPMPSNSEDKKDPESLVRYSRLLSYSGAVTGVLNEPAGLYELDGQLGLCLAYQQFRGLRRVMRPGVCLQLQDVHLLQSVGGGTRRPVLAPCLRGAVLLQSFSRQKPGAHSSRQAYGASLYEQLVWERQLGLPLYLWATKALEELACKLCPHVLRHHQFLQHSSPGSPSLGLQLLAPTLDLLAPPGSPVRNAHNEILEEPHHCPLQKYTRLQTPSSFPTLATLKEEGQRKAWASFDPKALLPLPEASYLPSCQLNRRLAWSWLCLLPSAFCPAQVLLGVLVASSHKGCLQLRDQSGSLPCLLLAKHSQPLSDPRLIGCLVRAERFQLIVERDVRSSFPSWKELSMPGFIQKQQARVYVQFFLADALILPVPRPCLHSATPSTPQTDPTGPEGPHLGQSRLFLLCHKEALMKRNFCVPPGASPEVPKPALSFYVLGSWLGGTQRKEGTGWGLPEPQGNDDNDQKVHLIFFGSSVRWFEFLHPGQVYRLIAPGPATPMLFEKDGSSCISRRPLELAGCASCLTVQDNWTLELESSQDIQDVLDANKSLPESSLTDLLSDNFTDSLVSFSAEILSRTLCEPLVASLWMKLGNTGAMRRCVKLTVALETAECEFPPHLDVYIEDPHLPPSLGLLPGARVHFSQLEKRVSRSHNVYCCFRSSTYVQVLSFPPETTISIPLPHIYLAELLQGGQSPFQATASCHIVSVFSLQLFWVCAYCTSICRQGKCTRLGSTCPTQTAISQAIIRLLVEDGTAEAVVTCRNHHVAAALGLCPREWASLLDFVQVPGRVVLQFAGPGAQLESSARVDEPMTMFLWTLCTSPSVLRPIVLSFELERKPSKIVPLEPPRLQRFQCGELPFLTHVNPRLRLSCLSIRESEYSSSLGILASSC

[1] = compound: C[C@H](C1=CC=C(C=C1)C(=O)NC2=C3C=CNC3=NC=C2)N
Summary of the method: as §1

gandotinib = compound: Cc1cc(Nc2cc(CN3CCOCC3)c3nc(C)c(Cc4ccc(Cl)cc4F)n3n2)n[nH]1 [gandotinib]
Summary of the method: as §1

tozasertib = compound: Cc1cc(Nc2cc(N3CCN(C)CC3)nc(Sc3ccc(NC(=O)C4CC4)cc3)n2)n[nH]1 [tozasertib]
Summary of the method: as §1

doramapimod = compound: Cc1ccc(-n2nc(C(C)(C)C)cc2NC(=O)Nc2ccc(OCCN3CCOCC3)c3ccccc23)cc1 [doramapimod]
Summary of the method: as §1

[2] = compound: Cc1cccc(CC(=O)N2CCc3c2ccc(-c2cn(C)c4ncnc(N)c24)c3F)n1
Summary of the method: as §1

nilotinib = compound: Cc1cn(-c2cc(NC(=O)c3ccc(C)c(Nc4nccc(-c5cccnc5)n4)c3)cc(C(F)(F)F)c2)cn1 [nilotinib]
Summary of the method: as §1

[3] = compound: Cc1nc(Nc2n[nH]c3c2CN(C(=O)N[C@H](CN(C)C)c2ccccc2)C3(C)C)c2sccc2n1
Summary of the method: as §1

[4] = compound: Cc1ncc(-c2ccnc(Nc3ccc(S(C)(=O)=O)cc3)n2)n1C(C)C
Summary of the method: as §1

quisinostat = compound: Cn1cc(CNCC2CCN(c3ncc(C(=O)NO)cn3)CC2)c2ccccc21 [quisinostat]
Summary of the method: as §1

tipifarnib = compound: Cn1cncc1[C@@](N)(c1ccc(Cl)cc1)c1ccc2c(c1)c(-c1cccc(Cl)c1)cc(=O)n2C [tipifarnib]
Summary of the method: as §1

[5] = compound: NC(=O)Nc1cc(-c2cccc(F)c2)sc1C(=O)N[C@H]1CCCNC1
Summary of the method: as §1

[6] = compound: NC1(c2ccc(-c3nc4ccn5c(=O)[nH]nc5c4cc3-c3ccccc3)cc2)CCC1
Summary of the method: as §1

duvelisib = compound: C[C@H](Nc1ncnc2nc[nH]c12)c1cc2cccc(Cl)c2c(=O)n1-c1ccccc1 [duvelisib]
Summary of the method: as §1

dasatinib = compound: Cc1nc(Nc2ncc(C(=O)Nc3c(C)cccc3Cl)s2)cc(N2CCN(CCO)CC2)n1 [dasatinib]
Summary of the method: as §1

[7] = compound: Cn1cc(-c2ccc3c(c2)CCN3C(=O)Cc2cccc(C(F)(F)F)c2)c2c(N)ncnc21
Summary of the method: as §1

pictilisib = compound: CS(=O)(=O)N1CCN(Cc2cc3nc(-c4cccc5[nH]ncc45)nc(N4CCOCC4)c3s2)CC1 [pictilisib]
Summary of the method: as §1

bafetinib = compound: Cc1ccc(NC(=O)c2ccc(CN3CC[C@H](N(C)C)C3)c(C(F)(F)F)c2)cc1Nc1nccc(-c2cncnc2)n1 [bafetinib]
Summary of the method: as §1

lapatinib = compound: CS(=O)(=O)CCNCc1ccc(-c2ccc3ncnc(Nc4ccc(OCc5cccc(F)c5)c(Cl)c4)c3c2)o1 [lapatinib]
Summary of the method: as §1

[8] = compound: NC(=O)c1cnc(N[C@@H]2CCCC[C@@H]2N)nc1Nc1cccc(-n2nccn2)c1
Summary of the method: as §1

Measured: log2 fold change

CST1 (UniProt P01037)
inactive: crizotinib 0.533 | [1] 0.086 | gandotinib -0.299 | tozasertib 0.619 | doramapimod 0.082 | [2] 0.414 | nilotinib -0.146 | [3] 0.073 | [4] -0.03 | quisinostat -0.007 | tipifarnib -0.177 | [5] -0.046 | [6] 1.03

CRNN (UniProt Q9UBG3)
inactive: nilotinib 0.059 | [3] 0.365 | [4] -0.199 | tipifarnib -0.449

CTDNEP1 (UniProt O95476)
inactive: crizotinib 0.008 | duvelisib 0.058 | doramapimod -0.055 | dasatinib 0.045 | [7] 0.013 | quisinostat -0.069 | [5] -0.002

CTSS (UniProt P25774)
inactive: [1] -0.261 | duvelisib 0.079 | gandotinib -0.04 | tozasertib 0.08 | [2] 0.213 | dasatinib 0.029 | [7] -0.006 | [6] -0.243

CSRP2 (UniProt Q16527)
inactive: pictilisib -0.063 | crizotinib -0.157 | [1] -0.018 | gandotinib -0.068 | tozasertib 0.118 | doramapimod 0.051 | bafetinib 0.072 | [2] 0.052 | quisinostat -0.012 | [5] 0.068

CRTC3 (UniProt Q6UUV7)
inactive: pictilisib -0.13 | crizotinib 0.09 | duvelisib 0 | tozasertib 0.061 | doramapimod -0.012 | bafetinib -0.012 | dasatinib -0.297 | [7] -0.033 | quisinostat 0.005 | [5] -0.049 | [6] 0.059

CYLD (UniProt Q9NQC7)
inactive: crizotinib -0.019 | doramapimod -0.083 | quisinostat -0.101 | [5] 0.056 | [6] -0.078

CSPG5 isoform 2 (UniProt O95196)
inactive: pictilisib 0.013 | crizotinib 0.012 | doramapimod -0.078 | bafetinib -0.118 | nilotinib -0.109 | [3] 0.173 | [4] -0.208 | quisinostat -0.012 | tipifarnib 0.249 | [5] 0.053 | [6] -0.111

CRY1 (UniProt Q16526)
inactive: [1] -0.098 | gandotinib 0.07 | [2] 0.033 | nilotinib 0.016 | [3] -0.037 | [4] 0.07 | tipifarnib 0.106

CTDSP1 isoform 3 (UniProt Q9GZU7)
inactive: pictilisib -0.028 | bafetinib -0.05

CTRB2 (UniProt Q6GPI1)
inactive: lapatinib -0.048 | [1] -0.402 | gandotinib 0.202 | tozasertib 0.124 | [2] 0.281 | nilotinib -0.028 | [3] 0.133 | [4] 0.026 | tipifarnib -0.09 | [8] -0.044

CROT isoform 3 (UniProt Q9UKG9)
inactive: crizotinib 0.025 | [1] 0.016 | gandotinib -0.199 | tozasertib 0.133 | doramapimod -0.046 | [2] -0.122 | nilotinib -0.12 | [3] 0.054 | [4] 0.27 | quisinostat 0.051 | tipifarnib 0 | [5] 0.008 | [6] -0.145

CTSF (UniProt Q9UBX1)
inactive: [1] 0.014 | gandotinib 0.028 | [2] 0.025 | [6] 0.268

CSF1 (UniProt P09603)
inactive: [1] 0.016 | gandotinib 0.059 | [2] 0.033

CSNK1A1 isoform 3 (UniProt P48729)
inactive: duvelisib -0.077 | dasatinib 0.048 | [7] -0.183

CSAD isoform 3 (UniProt Q9Y600)
inactive: pictilisib -0.123 | crizotinib -0.123 | doramapimod 0.035 | bafetinib 0.046 | quisinostat -0.035 | [5] -0.001 | [6] -0.153

Copied from above (6 entries):
CTRB2 (UniProt Q6GPI1)
inactive: lapatinib -0.048 | [1] -0.402 | gandotinib 0.202 | tozasertib 0.124 | [2] 0.281 | nilotinib -0.028 | [3] 0.133 | [4] 0.026 | tipifarnib -0.09 | [8] -0.044

CROT isoform 3 (UniProt Q9UKG9)
inactive: crizotinib 0.025 | [1] 0.016 | gandotinib -0.199 | tozasertib 0.133 | doramapimod -0.046 | [2] -0.122 | nilotinib -0.12 | [3] 0.054 | [4] 0.27 | quisinostat 0.051 | tipifarnib 0 | [5] 0.008 | [6] -0.145

CTSF (UniProt Q9UBX1)
inactive: [1] 0.014 | gandotinib 0.028 | [2] 0.025 | [6] 0.268

CSF1 (UniProt P09603)
inactive: [1] 0.016 | gandotinib 0.059 | [2] 0.033

CSNK1A1 isoform 3 (UniProt P48729)
inactive: duvelisib -0.077 | dasatinib 0.048 | [7] -0.183

CSAD isoform 3 (UniProt Q9Y600)
inactive: pictilisib -0.123 | crizotinib -0.123 | doramapimod 0.035 | bafetinib 0.046 | quisinostat -0.035 | [5] -0.001 | [6] -0.153

(next part)

CSNK1G3 isoform 4 (UniProt Q9Y6M4)
inactive: lapatinib -0.035 | [8] 0.083

CTNS isoform 2 (UniProt O60931)
inactive: pictilisib -0.093 | crizotinib 0 | [1] -0.314 | duvelisib -0.141 | gandotinib 0.348 | tozasertib 0.154 | doramapimod 0.106 | bafetinib 0.01 | [2] 0.206 | dasatinib 0.122 | [7] -0.013 | quisinostat -0.154 | [5] 0.002

CSNK2A1, A0A2R8Y4D6
inactive: lapatinib -0.132 | [8] 0.085

CTBP1 (UniProt E7ESU7)
inactive: nilotinib -0.314 | [3] -0.096 | [4] 0.182 | tipifarnib 0.545

CXXC5 (UniProt Q7LFL8)
inactive: duvelisib 0.188 | dasatinib -0.115 | [7] -0.156

CRY2 (UniProt Q49AN0)
inactive: [1] -0.044 | gandotinib 0.183 | [2] 0.085 | nilotinib 0.067 | [3] -0.043 | [4] -0.035 | tipifarnib -0.056

CSRNP2 (UniProt Q9H175)
inactive: duvelisib 0.054 | dasatinib -0.23 | [7] -0.128 | [6] -0.059

CYFIP1, A0A0G2JRV9
inactive: lapatinib -0.13 | nilotinib -0.105 | [3] -0.091 | [4] 0.002 | tipifarnib 0.106 | [8] -0.141

CTC1 (UniProt Q2NKJ3)
inactive: pictilisib -0.114 | crizotinib 0 | [1] 0.185 | duvelisib 0.031 | gandotinib 0.018 | tozasertib -0.073 | doramapimod -0.11 | bafetinib 0.019 | [2] 0.045 | nilotinib 0.385 | [3] -0.251 | dasatinib 0.006 | [4] -0.122 | [7] 0.045 | quisinostat -0.085 | tipifarnib -0.033 | [5] 0.194 | [6] 0.077

CTDSP1 (UniProt Q9GZU7)
inactive: crizotinib -0.091 | [1] 0.125 | duvelisib -0.051 | gandotinib -0.217 | doramapimod -0.065 | [2] -0.014 | dasatinib -0.086 | [7] -0.019 | quisinostat 0.03 | [5] 0.056
